Test results: patent US20230173029A1, “TREATMENT OF CARDIAC REMODELLING” (UNIVERSITETET I OSLO, priority 2020, published 2023)

System: Dahl salt-sensitive (Dahl/SS) male rats
Assay: Autopsy: body weight, heart weight and heart weight to body weight ratio in hypertensive Dahl/SS rats
Assay type: in vivo, rat
Conditions: HT Dahl/SS rats on high salt diet, at 6 weeks, mean ± SEM
Experimental: A total of 29 adult Dahl salt-sensitive (Dahl/SS) male rats with an initial weight of 150 to 200 g were included in the study. Rats were purchased from Charles River Laboratories (USA) and housed in a room with a 12/12-hour light cycle, a temperature of 21° C., and a humidity of 55%. Rats were maintained on a normal salt diet up to seven weeks of age. Twenty-two Dahl/SS were then randomly switched to a high salt diet for 6 weeks to induce hypertension, whilst 7 rats were kept normotensive (NT) on normal salt diet. Drinking water and food was provided ad libitum.
After 2 weeks of high salt diet, 15 hypertensive (HT) rats were started on treatment with proANP31-67. Rats treated with proANP31-67 received one of two dosages: 50 ng/kg/day (n=8) or 100 ng/kg/day (n=7). A total of 14 rats received only vehicle: control rats on a normal salt diet (n=7); and HT rats on a high salt diet (n=7). Rats were randomly assigned to the 3 groups (i.e. control normal salt; high salt untreated; high salt plus treatment).
Drug or vehicle was delivered via Alzet osmotic mini-pumps (Model 2004; mean pumping rate […], mean fill volume […]) implanted subcutaneously (as instructed by the manufacturer) for 28 days. Animals were treated with buprenorphine (0.05 mg/kg s.c.) as analgesic 30 minutes before and up to 1 day following implantation of pumps. […]

proANP31-67: Human proANP31-67, linear peptide fragment of proANP consisting of SEQ ID NO: 1; also known as vessel dilator, VSDL (EVVPPQVLSEPNEEAGAALSPLPEVPPWTGEVSPAQR; listed as Homo sapiens)
BW (body weight) (25 ng/kg/day s.c.): 354.0 ± 8.3 g
BW (body weight) (50 or 100 ng/kg/day s.c. (pooled) for 28 days): 348.6 ± 4.4 g
